T1: Human alpha3 (human) (UniProt P26006)
T1 sequence (looked up): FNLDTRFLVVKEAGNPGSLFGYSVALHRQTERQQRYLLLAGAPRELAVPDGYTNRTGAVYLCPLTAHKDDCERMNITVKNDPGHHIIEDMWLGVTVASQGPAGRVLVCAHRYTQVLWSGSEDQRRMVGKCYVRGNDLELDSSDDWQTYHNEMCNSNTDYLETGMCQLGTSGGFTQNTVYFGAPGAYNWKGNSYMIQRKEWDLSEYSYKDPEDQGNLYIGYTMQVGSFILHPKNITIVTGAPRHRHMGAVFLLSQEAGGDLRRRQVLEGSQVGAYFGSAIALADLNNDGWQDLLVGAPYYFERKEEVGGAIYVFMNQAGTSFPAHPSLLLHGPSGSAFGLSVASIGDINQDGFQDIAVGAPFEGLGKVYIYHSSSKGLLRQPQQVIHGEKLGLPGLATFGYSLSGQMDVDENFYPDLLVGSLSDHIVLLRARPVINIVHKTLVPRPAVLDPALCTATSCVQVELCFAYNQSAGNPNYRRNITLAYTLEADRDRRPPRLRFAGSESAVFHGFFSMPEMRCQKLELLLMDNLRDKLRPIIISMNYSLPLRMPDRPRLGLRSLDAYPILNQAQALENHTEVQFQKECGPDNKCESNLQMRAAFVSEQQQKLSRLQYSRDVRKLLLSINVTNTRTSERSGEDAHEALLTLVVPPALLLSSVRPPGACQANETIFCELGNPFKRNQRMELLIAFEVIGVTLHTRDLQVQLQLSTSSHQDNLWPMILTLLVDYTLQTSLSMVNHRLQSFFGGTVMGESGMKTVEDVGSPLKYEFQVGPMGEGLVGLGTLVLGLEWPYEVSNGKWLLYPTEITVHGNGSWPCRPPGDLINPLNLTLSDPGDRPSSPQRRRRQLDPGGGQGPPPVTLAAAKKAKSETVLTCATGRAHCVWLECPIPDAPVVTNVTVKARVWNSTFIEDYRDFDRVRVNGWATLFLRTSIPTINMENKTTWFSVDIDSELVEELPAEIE

Sequences of proteins named here, by UniProt entry; tags and fusion partners are left off. A change or cut given only in a name is not applied to a line headed by its entry. Residues count along the entry.
UniProt P05556: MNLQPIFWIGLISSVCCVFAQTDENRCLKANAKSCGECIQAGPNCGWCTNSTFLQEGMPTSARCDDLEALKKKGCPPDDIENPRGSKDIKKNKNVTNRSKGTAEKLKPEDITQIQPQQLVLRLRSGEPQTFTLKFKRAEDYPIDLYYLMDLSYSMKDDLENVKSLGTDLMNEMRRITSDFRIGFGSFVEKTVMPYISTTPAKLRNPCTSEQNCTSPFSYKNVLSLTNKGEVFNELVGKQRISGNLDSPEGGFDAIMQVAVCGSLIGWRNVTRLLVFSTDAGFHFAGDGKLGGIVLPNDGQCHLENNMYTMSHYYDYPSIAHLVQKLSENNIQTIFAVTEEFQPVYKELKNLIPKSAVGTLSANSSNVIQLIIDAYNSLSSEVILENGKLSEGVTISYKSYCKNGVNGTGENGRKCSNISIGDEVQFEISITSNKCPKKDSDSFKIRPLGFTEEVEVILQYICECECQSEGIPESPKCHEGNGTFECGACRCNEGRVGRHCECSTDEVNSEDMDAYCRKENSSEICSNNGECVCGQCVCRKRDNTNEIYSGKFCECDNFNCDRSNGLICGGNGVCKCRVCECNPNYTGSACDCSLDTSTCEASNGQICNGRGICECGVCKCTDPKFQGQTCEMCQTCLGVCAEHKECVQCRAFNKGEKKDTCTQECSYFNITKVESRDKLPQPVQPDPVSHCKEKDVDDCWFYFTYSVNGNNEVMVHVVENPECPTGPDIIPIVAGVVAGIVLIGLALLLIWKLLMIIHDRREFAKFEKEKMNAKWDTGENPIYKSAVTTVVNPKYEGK
UniProt P06756: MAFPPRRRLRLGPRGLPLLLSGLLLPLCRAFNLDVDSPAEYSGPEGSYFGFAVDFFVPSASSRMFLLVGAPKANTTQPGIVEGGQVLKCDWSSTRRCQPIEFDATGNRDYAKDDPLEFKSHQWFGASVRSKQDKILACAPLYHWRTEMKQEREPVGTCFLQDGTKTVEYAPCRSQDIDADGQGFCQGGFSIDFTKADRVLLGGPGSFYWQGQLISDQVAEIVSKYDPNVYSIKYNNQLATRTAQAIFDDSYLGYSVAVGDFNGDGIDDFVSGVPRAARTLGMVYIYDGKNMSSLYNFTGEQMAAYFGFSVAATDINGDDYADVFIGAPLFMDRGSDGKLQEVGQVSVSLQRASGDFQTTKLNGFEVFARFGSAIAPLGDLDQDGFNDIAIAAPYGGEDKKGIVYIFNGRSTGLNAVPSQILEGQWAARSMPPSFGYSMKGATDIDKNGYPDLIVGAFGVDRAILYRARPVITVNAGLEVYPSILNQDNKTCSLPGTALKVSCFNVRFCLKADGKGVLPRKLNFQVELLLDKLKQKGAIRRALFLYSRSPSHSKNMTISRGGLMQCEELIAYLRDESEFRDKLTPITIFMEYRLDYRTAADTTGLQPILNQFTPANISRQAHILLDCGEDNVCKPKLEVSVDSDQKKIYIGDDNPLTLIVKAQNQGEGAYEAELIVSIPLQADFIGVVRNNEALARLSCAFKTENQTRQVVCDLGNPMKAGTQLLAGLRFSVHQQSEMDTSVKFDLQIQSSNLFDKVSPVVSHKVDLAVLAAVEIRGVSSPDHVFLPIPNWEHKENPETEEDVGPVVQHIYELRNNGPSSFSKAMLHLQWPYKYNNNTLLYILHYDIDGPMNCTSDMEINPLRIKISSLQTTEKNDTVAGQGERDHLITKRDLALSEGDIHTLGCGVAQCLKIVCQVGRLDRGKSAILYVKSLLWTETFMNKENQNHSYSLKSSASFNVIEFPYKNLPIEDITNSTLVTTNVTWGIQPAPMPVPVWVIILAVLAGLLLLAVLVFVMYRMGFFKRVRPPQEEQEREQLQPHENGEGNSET
UniProt P08648, residues 42-995: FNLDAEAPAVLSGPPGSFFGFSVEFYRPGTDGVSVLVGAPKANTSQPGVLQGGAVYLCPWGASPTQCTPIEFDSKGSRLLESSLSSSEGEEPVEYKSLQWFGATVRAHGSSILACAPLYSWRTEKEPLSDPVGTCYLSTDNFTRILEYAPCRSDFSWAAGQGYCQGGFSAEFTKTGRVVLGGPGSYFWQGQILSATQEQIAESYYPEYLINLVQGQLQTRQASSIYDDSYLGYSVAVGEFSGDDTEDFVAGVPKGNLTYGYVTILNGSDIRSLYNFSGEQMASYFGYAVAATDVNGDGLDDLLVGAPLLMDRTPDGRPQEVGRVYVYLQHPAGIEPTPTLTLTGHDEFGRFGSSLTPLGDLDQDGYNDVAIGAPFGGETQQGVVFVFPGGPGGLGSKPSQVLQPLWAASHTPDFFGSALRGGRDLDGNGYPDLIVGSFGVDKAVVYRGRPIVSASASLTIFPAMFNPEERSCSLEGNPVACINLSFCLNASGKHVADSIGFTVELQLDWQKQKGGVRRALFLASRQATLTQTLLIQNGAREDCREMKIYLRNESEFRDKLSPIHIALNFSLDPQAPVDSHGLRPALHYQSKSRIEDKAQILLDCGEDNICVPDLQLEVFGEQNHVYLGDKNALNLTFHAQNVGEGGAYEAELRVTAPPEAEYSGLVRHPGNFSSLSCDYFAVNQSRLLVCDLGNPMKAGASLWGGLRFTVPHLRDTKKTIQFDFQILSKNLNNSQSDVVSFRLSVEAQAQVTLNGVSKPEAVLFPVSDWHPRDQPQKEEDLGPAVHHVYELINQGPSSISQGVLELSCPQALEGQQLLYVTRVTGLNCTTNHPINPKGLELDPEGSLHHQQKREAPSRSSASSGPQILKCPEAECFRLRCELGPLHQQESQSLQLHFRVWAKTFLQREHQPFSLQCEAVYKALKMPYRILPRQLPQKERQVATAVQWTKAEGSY

B1: VHH-H6 (VHH)
VHH: QVQLQDSGGGLVQAGGSLRLSCEASGRTFSSYAMGWFRQPPGKEREWVSTISRSGSAIYAYPVKGRFTMSRDNAKNTVYLEMNSLKPEDTAVFYCAAARSGVPSSRPTDYDYWGQGTQVTVSS
notes: Used with a Myc tag (captured/detected with anti-Myc 9E10) and a C-terminal His6 tag (detected with anti-HIS6 (C-term)); also called H6-VHH
B2: VHH-5 bihead (GS15) (VHH)
chain: EVQLVESGGGLVQAGGSLRLSCAASGGTFRYQNMGWYRQAPGNEREWVASNWATGATAYADSVKGRFTISRDDAKNVVYLQMNNLKPEDTAVYYCNRLSRPWGWGQGTQVTVSSGGGGSGGGGSGGGGSEVQLVESGGGLVQAGGSLRLSCAASGGTFRYQNMGWYRQAPGNEREWVASNWATGATAYADSVKGRFTISRDDAKNVVYLQMNNLKPEDTAVYYCNRLSRPWSWGQGTQVTVSS
B3: 245-A1 (VHH)
VHH: EVQLVESGGGLVQAGGSLRLSCAASGGTFRYQNMGWYRQAPGNEREWVASNWATGATAYADSVKGRFTISRDDAKNVVYLQMNNLKPEDTAVYYCNRLSRPWSWGQGTQVTVSS
B4: 140-D10 (VHH)
VHH: EVQLVESGGGLVQAGGSLRLSCAASGRIYSSNTMAWFRQAPGKEREFGSAIMWRGDATYTDYADSMKDRFTISRDNAKNTVYLQMNSLKPEDTAIYYCAAGGRRWNTRKDSSQYDYWGQGTQVTVSS
B5: 140-E5 (VHH)
VHH: EVQLVESGVGLVQAGGSLRLSCAASGYTFNHNTMAWYRQAPGKQRELAASISSGGNTYYABSVKGRFTISRDNGNNTMYLQMNNLKPEDTAVYYCNWKDWPPNYKNDYWGQGTQVTVSS
B6: 140-F2 (VHH)
VHH: B5 VHH with V9G, G42V, N56S, B61D, K105T
B7: 242-A4 (VHH)
VHH: EVQLVESGGGLVQAGGSLRLSCAASGGTFSTYAMGWFRQAPGEERQFVATITWTGYTYYTDSVKGRFTISRDNAKKTVYLRMDKLKPEDTAVYYCAADRRGYIETMSVNYDYWGQGTQVTVSS
B8: 241-E1 (VHH)
VHH: EVQLVESGGGLVQPGGSLRLSCAASGFTFSRYTMTWVRQAPGKEPEWVSSITSRGSSTNYADSVKGRFTISRDNAKNTLYLQMNSLKPGDTAMYYCAKSGTETWYDRTYWGQGTQVTVSS
B9: 241-E3 (VHH)
VHH: B8 VHH with V64A
B10: 245-E1 (VHH)
VHH: EVQLVESGGGLVQAGGSLRLSCTVSITTYSFKRVAWHRQAPGNERELVAAIWNTDNTDYADSVKGRFTISRDNAKKTVYLQMNRLKPEDTAVYYCSANRGSYGTYWGQGTQVTVSS
B11: 245-D1 (VHH)
VHH: EVQLVESGGALVQPGGSLRLSCAASGFAFSNTVMSWARQAPGKGLEWVSTISASGVRTRYADSVTGRFTISRDYAKRTLYLQMNSLSPEDTGVYYCVRRKSYTDYDPPRWDYDTWGQGTQVTVSS
B12: 141-B11 (VHH)
VHH: EVQLVESGGGLVQAGGSLQLSCATSGESFSIKAMGWYRQAPGNQREMVATITGTGKTNYADSVKGRFTISRDIGTLYLQMNSLKPEDTAVYYCNLLSWPAGDYWGQGTQVTVSS
B13: 141-A4 (VHH)
VHH: EVQLVESGGGLVQAGGSLTLSCAASGSVFSINAMGWYRQAPGKQRELVATITTRGTTNYVDAVKGRFTISKDNAKNTMYLQMNSLKPEDTAVYYCAABSPPYGMGSDLGYWGQGTQVTVSS
B14: 245-E7 (VHH)
VHH: EVQLVESGGGLVQAGGSLRLSCGASGSIGTFNIMGWYRQAPGKQREMVATMTSGGNTRYADSVKGRSTISRENAKKTITLQMNNLKPEDTGVYYCNLKTLTAWSTSTGDYWGQGTQVTVSS
B15: 245-F7 (VHH)
VHH: EVQLVDSGGRLVQPGDLLRLSCTTSGFASSGYVLGWFRQAPGKEREFVAAIIRSGGNTAYSDSVKGRFTISRDNAKNTVYLQMKSLKPEDTGIYYCARSSVLGRSPALYDLWGQGTQVTVSS
B16: 245-G1 (VHH)
VHH: EVQLVESGGGLVQPGGSLRLSCAASGFAFSHYPMGWVRQAPGKGLEWVSGISASSIRTSYADSVKGRFTISRDHAKNTLYLQMNSLKVEDTAVYYCAQLRNYRYFGDMDYRGEGTLVTVSS
B17: 141-D4 (VHH)
VHH: EVQLVESGGGLVQAGGSLRLSCAASGRMFSPNVMGWFRQAPGDQREFVANIYSGGSTNYADTVKGRFTILSDNAKNTVYLQMTSLKPEDTGVYYCSVKRVGQSWFDSGYWGQGTQVTVSS
B18: 141-D10 (VHH)
VHH: EVQLVESGGGLVQAGGSPRLSCVASGRTFSRCAMGWFRQAPGKEREFVATISANGELIYYANFVEGRFTISRDNAKNTVYLQMNSLKPEDTAVYFCAARRTFTRSSNRNEYADWGQGTQVTVSS
B19: 141-B4 (VHH)
VHH: EVQLVESGGGLVEAGGSLRLSCAASGSIFSINVMGWYRQAPGKQRELIGSITSRGTTRYTDSVKGRFTISRGNDKSTVYLQMNSLKPEDTAVYYCAABKGGVIGYSEGYWGQGTQVTVSS
B20: 141-F6 (VHH)
VHH: B19 VHH with T60A, K75M, E107V
B21: 141-F1 (VHH)
VHH: EVQLVESGGGLVKAGGSLRLSCAASGSIFSINTMAWYRQAPGKQREWITSITSRGTTRYABSVKGRFTISTSNDKSTVYLQMNSLKPEDTAVYYCAADKDGVIGYSVGYWGQGTQVTVSS
B22: 245-B1 (VHH)
VHH: EVQLVESGGGLVQAGGSLKLSCAASGFTFDDYAIGWFRQAPGKEREGVSCISSPDGSTYLVDSVKGRFTVSSDNAKNTAYLQMNSLKPEDTAVYYCALRRGGSYYFCDPLTVYEYDYWGQGTQVTVSS

Changes are numbered by the printed parent chain. Results are given in words; binding and its absence hold for the method and conditions named. Some results given as binding are weak or reduced against the parent protein; the word gives no strength.

One assay addresses T2, α3β1 (VLA-3) integrin of cells (HeLa cells; K562A3 transfectants) (human) (UniProt P26006+P05556). Briefly: FACS on K562A3 cells, VHH at 300 µg/ml, FITC anti-HIS6.
With B1, the binding result is given as “binds”.

The target in the next assay is T2, α3β1 (VLA-3) integrin of cells (HeLa cells; K562A3 transfectants) (human). Briefly: immunofluorescence on fixed cryo-sections of K562 / K562-A3 cells, 10 ug/ml.
Regarding B2, the binding result is listed as “binds”. On the same count and under the same terms, the result for B3 reads “binds”.

For the next assay the target is unchanged. Briefly: FACS on K562 and K562 cells expressing VLA-3.
B1: the binding result is reported as “binds”.

For the next assay the target is unchanged. Briefly: immunoprecipitation from HeLa cell lysates, Western blot with anti-α3 and anti-β1 antibodies.
On to B1, for which the binding entry was “binds”.

The next assay concerns the target recombinant VLA-3 (α3β1 integrin) (UniProt P26006). Description: ELISA on coated recombinant VLA-3.
Consider B1, for which the binding entry is on record as “binds”.

Another assay concerns the target T3, recombinant human alphavbeta6 (human, UniProt P06756 31-992; P18564 22-707, limits assumed).
T3 construct: Bought, carrier free (R&D Systems 3817-AV/CF); also called aVb6
Briefly: specificity ELISA on coated integrins, periplasmic extract.
As to B4, the binding entry is “binds”. The same measure, in the same setting: the result for B5 reads “binds”; that for B6, “binds”.

A further assay has as its target Human alpha5 (human) (UniProt P08648). Described as above.
Take B7: the binding result is reported as “binds”. Take B8: the binding result was “binds”. On the same count and under the same terms, next, B9: “binds”.

The next assay has as its target T1, Human alpha3 (human). Described as above.
For B10, the binding result is listed as “binds”.

Consider B11, for which the binding result was “binds”. In the case of B12, the binding entry was “binds”.

Take B13: the binding result is reported as “binds”. The same measure, in the same setting: the result for B14 reads “binds”.

With B15, the binding result is given as “binds”. Still for that read-out and setting: the result for B16 reads “binds”; that for B17, “binds”; that for B18, “binds”. The same measure, in the same setting: next, B19: “binds”; B20: “binds”; B21: “binds”.

Consider B22, for which the binding entry is listed as “binds”.

On to B3, for which the binding entry is “binds”.

The next assay addresses recombinant VLA-3 (α3β1 integrin) (UniProt P26006). Description: ELISA, integrin coated at 0.5 µg/well, absorbance at 450 nm.
With B1, the binding entry is reported as “binds”.

The values are drawn from patent publication US20110294982A1 (Ablynx, published 2011).
